For at least one compound, name, drawing or mass did not settle the structure.
System: γH2AX, 53BP1 and pRPA foci in LN229 MGMT+/-, MMR+/- cells
Experiment: Immunofluorescence foci assays
Assay type: cell-based, human
Details: 20 µM, 2 to 48 h
Experimental: Immunofluorescence Foci Assays. High-throughput immunofluorescence foci assays were performed at the Yale Center for Molecular Discovery (YCMD). Cells were seeded at 2000 cells/well in black polystyrene flat bottom 384-well plates (Greiner Bio-One) and allowed to adhere overnight. Compound addition was performed utilizing a Labcyte Echo 550 liquid handler (Beckman Coulter), with 6 replicates per test condition and 12 replicates per control condition. Following drug incubation, cells were fixed and stained for phospho-SER139-H2AX (yH2AX), 53BP1, or phospho-SER33-RPA2 (pRPA) as follows.
γH2AX protocol: Cells were fixed with 4% paraformaldehyde in 1X PBS for 15 min, washed twice with 1X PBS, incubated in extraction buffer (0.5% Triton X-100 in 1X PBS) for 10 min, washed twice with 1X PBS, and incubated in blocking buffer (Blocker Casein in PBS, Thermo Scientific + 5% goat serum, Life Technologies) for 1 h. Mouse anti-phospho-histone H2A.X (Ser139) antibody (clone JBW301, Millipore, 05-636) was added 1/1000 in blocking buffer at 4° C. overnight. After washing with 1X PBS, cells were incubated with goat anti-mouse IgG (H+L) highly cross-adsorbed secondary antibody, Alexa Fluor 647 (Invitrogen, A-21236) 1/500 and with 1 µg/mL Hoechst nucleic acid dye in blocking buffer for 2 h, and then washed with 1X PBS. […]

With `Cn1nnc2c(C(N)=O)ncn2c1=O` [TMZ, temozolomide, reference compound] the “γH2AX, 53BP1, pRPA foci formation” value was “comparable response in MGMT- cells, but this was abolished in the absence of functional MMR”.

— patent US20230212202A1, “TREATMENT OF MGMT DEFICIENT CANCER WITH 2-FLUOROETHYL-SUBSTITUTED NITROSOUREAS AND OTHER COMPOUNDS” (YALE UNIVERSITY, priority 2021, published 2023)
